Laboratory results: patent US20200171051A1, “METHODS FOR TREATING RENAL INJURY BY […] UPREGULATING P21” (RENIBUS THERAPEUTICS, INC., priority 2018, published 2020)
At least one structure is not confirmed: it was looked up by name or label, or the drawing left a doubt.

Tests used:
[1] = relative to cortisol = 1; cited from earlier work
renal cortical p53 mRNA [2] = experiment: Glycerol AKI model: renal cortical p53 mRNA; type: in vivo, male CD-1 mice; conditions: 4 hr post glycerol mice, DXM 250 μg IP
Method: The present inventors conducted studies to better understand the factors that drive renal p21 expression during AKI. All experiments were performed using male CD-1 mice (35-40 grams, Charles River Laboratories, Wilmington, Del.) maintained under routine vivarium conditions with free food and water access. The AKI models were approved by the institution's Animal Care and Utilization Committee). All surgical procedures were conducted under deep pentobarbital anesthesia (40-50 mg/Kg IP).
Mice were briefly anesthetized with isoflurane, and then subjected to intramuscular glycerol injection (administered in equally divided doses into each hind limb). The glycerol dose ware varied (6, 6.5, 7, 7.5, 8, 8.5, 9 ml/Kg; n˜2-3 per dose) in order to produce variable degrees of renal injury. […] Renal cortical, plasma, and urinary p21 concentrations were determined with a ‘sandwich’ ELISA which employs two distinct monoclonal antibodies (capture; detection) directed against two different p21 epitopes, conferring p21 specificity; (#2120721; Abcam, Cambridge, Mass.). Renal cortical p21 mRNA levels were determined by RT-PCR, factored by GAPDH. […]
Pifithrin-α is a stable, water soluble, p53 inhibitor which blocks activation of p53 responsive genes. […] Four hrs post glycerol injection, renal cortical tissues were analyzed for p21 and p53 mRNAs. […]

renal cortical p53 mRNA [3] = experiment: Normal mice (no renal injury): renal cortical p53 mRNA; type: in vivo, male CD-1 mice; conditions: 4 hrs after DXM 250 μg IP

Structure (SMILES) | Glucocorticoid potency [1] | p53 mRNA levels with DXM treatment (renal cortical p53 mRNA [2]) | p53 mRNA levels with DXM treatment (renal cortical p53 mRNA [3])
C[C@H]1C[C@@H]2[C@H]([C@@H](O)C[C@@]3(C)[C@H]2CC[C@]3(O)C(=O)CO)[C@@]2(C)C=CC(=O)C=C12 [Methylprednisolone] | 5-7.5 | – | –
C[C@@H]1C[C@H]2[C@@H]3CCC4=CC(=O)C=C[C@]4(C)[C@@]3(F)[C@@H](O)C[C@]2(C)[C@@]1(O)C(=O)CO [Dexamethasone] | – | slightly decreased | slightly decreased
